PubChem BioAssay AID1508597, Cure First – 2020
This is an unselected part of the about 2,100 reagents, in one setting of the screen. 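Calls flag viability under 80% in either arm, not effects specific to rucaparib; the reference for percent is not stated.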 Reagents against one gene are numbered here. A reagent listed more than once was tested more than once; the source does not tell the runs apart. Not given: the 100% reference.

- Aim: 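Genes whose silencing sensitises or protects ovarian cancer cells against rucaparib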 (primary screen)
- System: human ovarian carcinoma lines grown from tumours: OCI-P5x (papillary serous) and OCI-C5x (clear cell)
- Reagents: siRNA pool against human genes, 1.25 pmol siRNA per well
- Timing: 72 h or 96 h, depending on the cell culture
- Conditions: rucaparib 20 µM (about IC30) or vehicle, present until read-out
- Rucaparib or vehicle: Rucaparib
- Cell line: OCI-P5x (serous)
- Measurement: 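Luminescent ATP-based viability assay read 72 or 96 h after transfection, depending on culture, given as normalised percent viability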
- Direction: viability, normalised: higher = more viable cells remaining
- Call rule: 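Active when normalised viability falls below 80 percent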
- Meaning of the calls: active = viability under 80%; inactive = viability 80% or more

target	reagent	technical replicate	viability, normalised (%)	call
CLDN8	1	1	57.3	active
CLDN8	1	2	65.9	active
CLDN8	1	3	61.9	active
RPL5	1	1	74.8	active
RPL5	1	2	73.4	active
RPL5	1	3	63.4	active
TAF8	1	1	66.3	active
TAF8	1	2	51.2	active
TAF8	1	3	61.9	active
SOX9	1	1	69	active
SOX9	1	2	85.3	inactive
SOX9	1	3	75.8	active
RRM2B	1	1	73.8	active
RRM2B	1	2	90.2	inactive
RRM2B	1	3	74	active
PLK4	1	1	69.9	active
PLK4	1	2	97.5	inactive
PLK4	1	3	47.4	active
PDK2	1	1	124	inactive
PDK2	1	2	99.5	inactive
PDK2	1	3	98.9	inactive
BCORL1	1	1	53.6	active
BCORL1	1	2	71	active
BCORL1	1	3	75.9	active
HMG20B	1	1	65.8	active
HMG20B	1	2	84.3	inactive
HMG20B	1	3	63.9	active
CLDN10	1	1	58.5	active
CLDN10	1	2	58.8	active
CLDN10	1	3	32.8	active
PPARGC1A	1	1	54.4	active
PPARGC1A	1	2	66.6	active
PPARGC1A	1	3	78.1	active
SMARCAL1	1	1	84.7	inactive
SMARCAL1	1	1	55.5	active
SMARCAL1	1	2	48.8	active
SMARCAL1	1	2	99.8	inactive
SMARCAL1	1	3	47.5	active
SMARCAL1	1	3	82.8	inactive
GALK2	1	1	71	active
GALK2	1	2	91.6	inactive
GALK2	1	3	72.2	active
NME9	1	1	54.6	active
NME9	1	2	41.4	active
NME9	1	3	49	active
NME9	2	1	107	inactive
NME9	2	2	109	inactive
NME9	2	3	92.5	inactive
FKBP1A	1	1	77.9	active
FKBP1A	1	2	63	active
FKBP1A	1	3	68	active
IFNAR2	1	1	90	inactive
IFNAR2	1	2	88	inactive
IFNAR2	1	3	79.2	active
EMSY	1	1	66	active
EMSY	1	1	52.1	active
EMSY	1	2	47.7	active
EMSY	1	2	63.2	active
EMSY	1	3	61.1	active
EMSY	1	3	44.2	active

4 consecutive records from above, quoted:
target	reagent	technical replicate	viability, normalised (%)	call
SMARCAL1	1	1	84.7	inactive
SMARCAL1	1	1	55.5	active
SMARCAL1	1	2	48.8	active
SMARCAL1	1	2	99.8	inactive
